Experimental data as given in publication PMC7819943, “Rice protein-binding microarrays: a tool to detect cis-acting elements near promoter regions in rice”.
The other results are listed elsewhere or left out.

Sequences of proteins named here, by UniProt entry; tags and fusion partners are left off.
UniProt Q0JBA9, entry or part of it: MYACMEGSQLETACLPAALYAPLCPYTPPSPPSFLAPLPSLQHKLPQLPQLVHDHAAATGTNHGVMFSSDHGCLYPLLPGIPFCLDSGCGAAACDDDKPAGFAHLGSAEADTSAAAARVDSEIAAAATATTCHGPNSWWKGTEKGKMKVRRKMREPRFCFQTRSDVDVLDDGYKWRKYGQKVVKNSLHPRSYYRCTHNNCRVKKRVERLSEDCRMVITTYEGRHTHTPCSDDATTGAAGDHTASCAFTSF

Each sequence was assayed against OsWRKY34 (Oryza sativa, UniProt Q0JBA9 1-250) (assay: protein-binding microarray (RPBM); PBS, 2% BSA, 51.3 ng/ul salmon testes DNA, 50 uM zinc acetate, 200 nM TF, 25 C, 1 h; high values mean tight binding). Details: protein: recombinant; tags: N-terminal polyhistidine and DsRed monomer fusion (pET32a); label: CyDye5-dUTP incorporated in the synthesized complementary strand; 3' TTTTT single-stranded linker to array surface; dsDNA, one strand shown.
Method in brief: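 Using Ni–NTA, transcription factors fused N-terminally to polyhistidine and DsRed were purified after expression in E. coli BL21-CodonPlus. These were incubated at 200 nM with a blocked, double-stranded custom Agilent array for 1 h at 25 °C in a buffer containing 50 µM zinc acetate, and the array was washed. The binding signal is per-feature fluorescence intensity (arbitrary units) on an Axon 4000B scanner.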

Sequence | binding signal
CGCATTTCACTACGGTTTTTCAGGCTATGTTTAGTTCAGACGGAGTCACCTAGTGCAG | 8340 fluorescence intensity (a.u.)
GCACAAAACCCTCGAGCACCGCCCGCCGCTATATAACAACCGGAGTCACCTAGTGCAG | 9960 fluorescence intensity (a.u.)
TTAGTGGTGTTTATTATGTCTATTCGATCAGATGGATGCTCGGAGTCACCTAGTGCAG | 9160 fluorescence intensity (a.u.)
GCAATTTGCCTCTTTGTTCCTCATAGTCCAGACACAATTCCGGAGTCACCTAGTGCAG | 9840 fluorescence intensity (a.u.)
TACAGGCTCTCGGCCCACAAGGCGCGCTCTCTGGATCTTTCGGAGTCACCTAGTGCAG | 8030 fluorescence intensity (a.u.)
GCTGTGCTGTTGCGATGCCGTTTCTGATGATTGCATGCACCGGAGTCACCTAGTGCAG | 8160 fluorescence intensity (a.u.)
AGCACATATTCATCTCACGCTTCCTTCTCACTTCTTGTCCCGGAGTCACCTAGTGCAG | 8740 fluorescence intensity (a.u.)
ATCATTTTCTTGTACTCCATACGTCTCATAATATAATTTTCGGAGTCACCTAGTGCAG | 12400 fluorescence intensity (a.u.)
ATGGCGTTTGGTGGTGGTCGACAATCTTTTCCGGTTTCTACGGAGTCACCTAGTGCAG | 12700 fluorescence intensity (a.u.)
AACGCATCGCCTTCCACGTCACCACGTCACTCCTTGCCCTCGGAGTCACCTAGTGCAG | 8460 fluorescence intensity (a.u.)
ATTTCTACAGTCCACTACCACCAGCACGACGTACTGCACCCGGAGTCACCTAGTGCAG | 8360 fluorescence intensity (a.u.)
GTAGTAGGGGAGGAGTGTATCTAGTAGTATAGGGAGGGAGCGGAGTCACCTAGTGCAG | 13000 fluorescence intensity (a.u.)
CACTTCTTTTCTCTATGGCGGCATCTGAATCTATGTGGATCGGAGTCACCTAGTGCAG | 9450 fluorescence intensity (a.u.)
TTTATTCACTTGCCACATCATTTTTCATCGTAGATGATAGCGGAGTCACCTAGTGCAG | 8192 fluorescence intensity (a.u.)
AATATGTTACACGTTTGTTTTGACACTTTCTCCGGCCTAACGGAGTCACCTAGTGCAG | 12900 fluorescence intensity (a.u.)
TTGGAGTCAATTTCCTTGCAAGCTACTCTTTACGTCGTTACGGAGTCACCTAGTGCAG | 8240 fluorescence intensity (a.u.)
ACAACGTTTACGTTTTTCTTTTGATGGTTTTAATATATGTCGGAGTCACCTAGTGCAG | 10700 fluorescence intensity (a.u.)
TTCCTGAGATCAGGGATGAGTCGTTGACTCGATGTTTTTCCGGAGTCACCTAGTGCAG | 8100 fluorescence intensity (a.u.)
GAGCCGCCCGTCGTCTCTCACACCGCCGCCGCCCAACTCCCGGAGTCACCTAGTGCAG | 9010 fluorescence intensity (a.u.)
GTTCGTTTGTCTCTTCCATTCCTGACGTGGCAAGCCTTCGCGGAGTCACCTAGTGCAG | 9090 fluorescence intensity (a.u.)
CTGACACGGCCCATTTACTAGTCTCCAACCTCGTCGCCGCCGGAGTCACCTAGTGCAG | 9830 fluorescence intensity (a.u.)

Sequence | binding signal
TATAAGTCATTTGACTTTTTTCCTAGTCAAGTTTAACCAACGGAGTCACCTAGTGCAG | 9380 fluorescence intensity (a.u.)
TCAAACTTGATGTTATATCTGACTTACGGTCTTTGCTTCTCGGAGTCACCTAGTGCAG | 8710 fluorescence intensity (a.u.)
GTTTTTCCTCTCTGCTTGTAACGCGTGATGTAAAATTTTCCGGAGTCACCTAGTGCAG | 11000 fluorescence intensity (a.u.)
TTAATTGCGCCTCCTCCGCTCGCTCCTCCGCCTCGTCTCGCGGAGTCACCTAGTGCAG | 9680 fluorescence intensity (a.u.)
AGATGACCTCTACTTAATGCTCGGTCGGAATCTTCAACTACGGAGTCACCTAGTGCAG | 9620 fluorescence intensity (a.u.)
CCATCACCCACCGCATCTCCGCTCCTCGACCGCGAGAGAGCGGAGTCACCTAGTGCAG | 8920 fluorescence intensity (a.u.)
GCTCGCCTCGCTTGCAGCTGCACCCAACCCAACCTCCTCGCGGAGTCACCTAGTGCAG | 8500 fluorescence intensity (a.u.)
CCCATATTATTCGTCTCCTTGCTTGCTTCTCTGAATATCACGGAGTCACCTAGTGCAG | 8760 fluorescence intensity (a.u.)
CACTTCACTTCACTTCGCCGTGCTCGCCATCATCGCCGCTCGGAGTCACCTAGTGCAG | 14300 fluorescence intensity (a.u.)
ATTTAAGGTAACTGGTTTCATATTCAAAGTTTGTTTACTACGGAGTCACCTAGTGCAG | 8200 fluorescence intensity (a.u.)
AAGCCGCGTTTTGTTTCTCGCGAAAGTGTTTGTTGATATGCGGAGTCACCTAGTGCAG | 9390 fluorescence intensity (a.u.)
GTCGCGCGCGGCGATGCTCGTCAGCCGGATGCCCCGCCGGCGGAGTCACCTAGTGCAG | 8370 fluorescence intensity (a.u.)
TATGCGATACGATTAACTGGTTCTAGTCCTTGATTTTTCTCGGAGTCACCTAGTGCAG | 8620 fluorescence intensity (a.u.)
TAAGTGCAGTTTTGCACTATTCACGTTCAACGTTTGACCGCGGAGTCACCTAGTGCAG | 8940 fluorescence intensity (a.u.)
TCATCATGTGACCGACCACCGCATCCTCAGTTGACCCAGTCGGAGTCACCTAGTGCAG | 8640 fluorescence intensity (a.u.)
CCCATCGCATCTTTCCCACTCGCCCCACGCCCGCACGTCTCGGAGTCACCTAGTGCAG | 18800 fluorescence intensity (a.u.)
CATGCACTTAGTAATTTCTTGTATATGGTACCAGAATTTCCGGAGTCACCTAGTGCAG | 8200 fluorescence intensity (a.u.)
ATTGGCTGTTTCGTTTGCTATGTCATTGGCTTTCCCGCGCCGGAGTCACCTAGTGCAG | 8650 fluorescence intensity (a.u.)
GATATTGGATCGATCGCTGTACCTAGCGCACAAAAGTTATCGGAGTCACCTAGTGCAG | 8240 fluorescence intensity (a.u.)
CTGCTGCTGCTTCTGCTACTGCACTACTACTACACTCATACGGAGTCACCTAGTGCAG | 8070 fluorescence intensity (a.u.)
TATAATGGATTTTGAGTTTTTCTTGCACCGTTTTACCACTCGGAGTCACCTAGTGCAG | 10600 fluorescence intensity (a.u.)

Shown tab-delimited: entries from further up
Sequence	binding signal
AAGCCGCGTTTTGTTTCTCGCGAAAGTGTTTGTTGATATGCGGAGTCACCTAGTGCAG	9390 fluorescence intensity (a.u.)
GTCGCGCGCGGCGATGCTCGTCAGCCGGATGCCCCGCCGGCGGAGTCACCTAGTGCAG	8370 fluorescence intensity (a.u.)
TATGCGATACGATTAACTGGTTCTAGTCCTTGATTTTTCTCGGAGTCACCTAGTGCAG	8620 fluorescence intensity (a.u.)
TAAGTGCAGTTTTGCACTATTCACGTTCAACGTTTGACCGCGGAGTCACCTAGTGCAG	8940 fluorescence intensity (a.u.)
TCATCATGTGACCGACCACCGCATCCTCAGTTGACCCAGTCGGAGTCACCTAGTGCAG	8640 fluorescence intensity (a.u.)
CCCATCGCATCTTTCCCACTCGCCCCACGCCCGCACGTCTCGGAGTCACCTAGTGCAG	18800 fluorescence intensity (a.u.)

The listing continues:

Sequence | binding signal
ACCACTTCATCGCATTGTGCATGCTCCAATGGTACTTCTACGGAGTCACCTAGTGCAG | 11200 fluorescence intensity (a.u.)
CTCCCAATCATCTTTTTCCGTTCCCTACTTCATGTTATTCCGGAGTCACCTAGTGCAG | 10500 fluorescence intensity (a.u.)
CTCGCCGCGCGATTCCGGCCCTACCCTGGCGCCCTGCGCCCGGAGTCACCTAGTGCAG | 9910 fluorescence intensity (a.u.)
TCTTCCCACTCGCATCTCCTCACCTCCTTTCCTTCTTTAACGGAGTCACCTAGTGCAG | 10700 fluorescence intensity (a.u.)
TTTTCTCATTTATTCACTTGTCACATCATTTTTCATACTACGGAGTCACCTAGTGCAG | 9290 fluorescence intensity (a.u.)
CCTTTGAATTTCTCTGTTCTATTTTCCTCGATTTCTTTCTCGGAGTCACCTAGTGCAG | 9670 fluorescence intensity (a.u.)
CCATCAGTTTTGGTTGGTGTTTTTTTTCTTTCTAAATTTCCGGAGTCACCTAGTGCAG | 10500 fluorescence intensity (a.u.)
CTATGTTTTTACTGGATCTTTTTTTTGGTAGTACACGCAACGGAGTCACCTAGTGCAG | 9510 fluorescence intensity (a.u.)
AGCTTCGTCATCGCTCGCCCTGCCCCTGCATATGTAACAGCGGAGTCACCTAGTGCAG | 8192 fluorescence intensity (a.u.)
TGCGCGTGTCGCTGGTTCTTATGATTTATGATCATACTTACGGAGTCACCTAGTGCAG | 9090 fluorescence intensity (a.u.)
CTATAAGGTGGTAGCGCTCTTGTTGTTGCTAGTCCAGTCTCGGAGTCACCTAGTGCAG | 11700 fluorescence intensity (a.u.)
TAGTTGTCAGGTCGCTCCGCTTCATTCTGCTGTGCATTTTCGGAGTCACCTAGTGCAG | 10100 fluorescence intensity (a.u.)
GTGGCGTCCCAATCCAATCCATTCCCAATGCGACTTCTCACGGAGTCACCTAGTGCAG | 9080 fluorescence intensity (a.u.)
TCTCCAACCACGCACCTTTGCCTAAATGTTGCCAATAAAACGGAGTCACCTAGTGCAG | 8240 fluorescence intensity (a.u.)
TGTCACCACGTCCGCAACTATTCTCCTGCCATCAGTGCACCGGAGTCACCTAGTGCAG | 8130 fluorescence intensity (a.u.)
CCTTCTTTCTCTTTCATTCTCTCTGTACTGTACGTACGTTCGGAGTCACCTAGTGCAG | 9760 fluorescence intensity (a.u.)
TTTGGTGTTTTCTGCTGGTATATTAGTTATGTTTGGAGTACGGAGTCACCTAGTGCAG | 11600 fluorescence intensity (a.u.)
ACACGATTGCTCACCCTATTCGCCGCCGCCGCCGCCGCCGCGGAGTCACCTAGTGCAG | 8130 fluorescence intensity (a.u.)
GTGTGCATGATTTTGTCGTTTGTTTTATGCATGCTGCGTTCGGAGTCACCTAGTGCAG | 8230 fluorescence intensity (a.u.)
ACCAGGATGGATCTACTGTAAGCACCAGTTGACCGCATTTCGGAGTCACCTAGTGCAG | 8400 fluorescence intensity (a.u.)
GGGATGGGGAAGGTCAGAGCCAATATGATCTGGTAACTCTCGGAGTCACCTAGTGCAG | 9510 fluorescence intensity (a.u.)

Sequence | binding signal
ATGATCCTTTTTTACCTTTATACAGTATGTTCAGTCCAAACGGAGTCACCTAGTGCAG | 8980 fluorescence intensity (a.u.)
CCAATTGTCGTTTCCGCACGTACATCCTGCATGGCAAAGGCGGAGTCACCTAGTGCAG | 8740 fluorescence intensity (a.u.)
CCTCACAAGTCACAAGTCACAAACCATCATCTTCACTAGTCGGAGTCACCTAGTGCAG | 8300 fluorescence intensity (a.u.)
CTTCATCACCTGTTGCTTGATACTTGTTCCTTCGCAGTATCGGAGTCACCTAGTGCAG | 9560 fluorescence intensity (a.u.)
TATGTTCCTTTTATCTAAGTATGCATTAATAATAGGTCTACGGAGTCACCTAGTGCAG | 8080 fluorescence intensity (a.u.)
CCCACTCGCTCTCTCTCACTCTCGCCGCGGCTTAAAGCGCCGGAGTCACCTAGTGCAG | 8680 fluorescence intensity (a.u.)
GGGTGGAGATGTAAATCTGGTGAAATTGGAGGGGCTCCTTCGGAGTCACCTAGTGCAG | 9040 fluorescence intensity (a.u.)
GGAGGAGGGGTGGGGTGTTGAGCCCTGGAGAAGCCACCGCCGGAGTCACCTAGTGCAG | 21000 fluorescence intensity (a.u.)
TCTCGCATGATATTCACTGTTTTTTTTATGTTACCAAACACGGAGTCACCTAGTGCAG | 11100 fluorescence intensity (a.u.)
GGAAGGGGCATGCAGAGGAGCAGGAGATTCAGTTTGAAGCCGGAGTCACCTAGTGCAG | 8210 fluorescence intensity (a.u.)
TCTGATGTCTGTGTTTTTTTTTCTTTAGCCAGCGTTACATCGGAGTCACCTAGTGCAG | 8420 fluorescence intensity (a.u.)
AACGCACGGGTATTTTTTTCTAGTCTACTTAATAATTATTCGGAGTCACCTAGTGCAG | 9180 fluorescence intensity (a.u.)
CCCTATAAATACATGCCCAAGCTGCTCACATTCTCATCATCGGAGTCACCTAGTGCAG | 9400 fluorescence intensity (a.u.)
GTGCATGAGCCAACTTCCGGTGTATATATATATATATATACGGAGTCACCTAGTGCAG | 8510 fluorescence intensity (a.u.)
TTCACCACACAGTTCGTCGATTTTTTTTCAGCAATCTTTCCGGAGTCACCTAGTGCAG | 11300 fluorescence intensity (a.u.)
GAATTTTTTTTTTCCGCTCGATCGAGTTCGCTTCGAATTCCGGAGTCACCTAGTGCAG | 10500 fluorescence intensity (a.u.)
ACTTTTCTTCGATCGGCACCACCACCTTGTCCCGTGCCGTCGGAGTCACCTAGTGCAG | 12200 fluorescence intensity (a.u.)
CACCACGTACTTACCACCACCACCGCGCGCTCGATCGATCCGGAGTCACCTAGTGCAG | 12900 fluorescence intensity (a.u.)
AATCGAATGTGTTAGGTCTATTTTCGCACATGTTTGGTCACGGAGTCACCTAGTGCAG | 8060 fluorescence intensity (a.u.)
CCTCCCTGACGTCACGGTCGCCGTCTTTATCTCTGCAACGCGGAGTCACCTAGTGCAG | 8050 fluorescence intensity (a.u.)
GGTATTTTGGTTCTTTTATATTCACCTTGGAAAATTATCTCGGAGTCACCTAGTGCAG | 9690 fluorescence intensity (a.u.)
